We go through one molecule from patent US3950537A, “Gastrointestinally active thioureas” (Rohm and Haas Company, priority 1975, dated 1976).

In assay [1] the test system is charcoal entering the cecum. The assay can be described thus: Antimotility test (charcoal entering the cecum). The assay is classed as in vivo, mice (adult male). As to conditions: Mus musculus, po, 3.5 h, read-out: Antimotility ED50 (prevented the charcoal from entering the cecum in 50% of the treated mice).
Assay [2] has as its system diarrhea. The assay can be described thus: Antidiarrheal test (castor oil diarrhea). In kind it is in vivo, Swiss-Webster mice (adult male). As to conditions: Mus musculus, po, 3 h, read-out: Antidiarrheal ED50 (inhibited diarrhea in 50% of the treated mice). The protocol: Compounds which were active in the antimotility test were then evaluated in a secondary test which measured a counter-action on diarrhea. This was another type of antimotility test adapted from that reported by Janssen in U.S. Pat. No. 3,539,579. In this test adult male Swiss-Webster mice weighing 30 to 40 g. were employed, using 6 mice per treatment. The test compound was administered orally in a dosage series with a maximum of 30 mg./kg. either in water if soluble or else in 0.5% methyl cellulose. One hour after treatment, each animal received a single dose of 0.3 ml. of castor oil, administered orally. The animals were then individually caged and provided food and water. […] The results are reported in terms of an ED50, i.e., the dosage in mg./kg. which inhibited diarrhea in 50% of the treated mice.

For orientation: ED50 means the midpoint of the dose-response relation. For the molecule `CN1CC[C@]23c4c5ccc(O)c4O[C@H]2[C@@H](O)C=C[C@H]3[C@H]1C5.O=S(=O)(O)O` [morphine sulfate, reference compound], the results for the ED50 in assay [1] and in assay [2] were 9.5 mg/kg and 14 mg/kg, respectively.
